# Experimental data: the supplement of paper PMC4840960
# Structures can show the parent of a compound that is named as a salt. ± gives the standard deviation of the averaged measurements. This is one part of the list. Baselines shift from plate to plate; read single values as rough.
# System: E18 rat cortical neuron-glia co-culture
# Test: total nuclei (DAPI) / Olig2+ nuclei (ratio); higher = more depletion of OPC/OL lineage cells
# Settings: treatment time: 8 days (DIV5-DIV13)
smiles,measurement,setting,value
NS(=O)(=O)c1cc(C(=O)O)c(NCc2ccco2)cc1Cl [Furosemide],total nuclei,1 µM,3.62
same,total nuclei,5 µM,3.6
NS(=O)(=O)c1cc(C2(O)NC(=O)c3ccccc32)ccc1Cl (stereo not given) [Chlorthalidone],total nuclei,1 µM,4.49
same,total nuclei,5 µM,4.6
C=C(CC)C(=O)c1ccc(OCC(=O)O)c(Cl)c1Cl [Ethacrynic Acid],total nuclei,1 µM,20
same,total nuclei,5 µM,> 40
Nc1nc(Cl)nc2c1ncn2[C@@H]1O[C@H](CO)[C@@H](O)[C@H]1O [2-Chloroadenosine],total nuclei,1 µM,2.62
same,total nuclei,5 µM,2.7
CN(C)CCOC(c1ccccc1)c1ccccc1 [Diphenhydramine],total nuclei,1 µM,3.18
same,total nuclei,5 µM,3
NC(=O)c1cnccn1 [Pyrazinamide],total nuclei,1 µM,2.72
same,total nuclei,5 µM,2.8
CCc1cccc2c3c([nH]c12)C(CC)(CC(=O)O)OCC3 (stereo not given) [Etodolac],total nuclei,1 µM,3.88
same,total nuclei,5 µM,4.8
N[C@@H](C(=O)N[C@@H]1C(=O)N2C(C(=O)O)=C(Cl)CS[C@H]12)c1ccccc1 [Cefaclor],total nuclei,1 µM,3.01
same,total nuclei,5 µM,2.8
CC(C)(C)C(O)/C=C/c1ccc2c(c1)OCO2 (stereo not given) [Stiripentol],total nuclei,1 µM,2.75
same,total nuclei,5 µM,2.9
Cc1ccc(NC(=O)c2ccc(CN3CCN(C)CC3)cc2)cc1Nc1nccc(-c2cccnc2)n1 [Imatinib mesylate],total nuclei,1 µM,6
same,total nuclei,5 µM,6.6
CCN(CC)CC1CCCCN1CC(=O)N1c2ccccc2C(=O)Nc2cccnc21 (stereo not given) [Otenzepad],total nuclei,1 µM,2.66
same,total nuclei,5 µM,2.6
Cc1cccc(Nc2ccccc2C(=O)O)c1C [Mefenamic Acid],total nuclei,1 µM,3.73
same,total nuclei,5 µM,5.4
COc1cc2nc(N3CCN(C(=O)C4COc5ccccc5O4)CC3)nc(N)c2cc1OC (stereo not given) [Doxazosin],total nuclei,1 µM,2.6
same,total nuclei,5 µM,2.8
N=C(N)NC(=O)c1nc(Cl)c(N)nc1N [Amiloride],total nuclei,1 µM,3.52
same,total nuclei,5 µM,5
CN(C)[C@@H]1C(O)=C(C(N)=O)C(=O)[C@@]2(O)C(O)=C3C(=O)c4c(O)cccc4[C@@](C)(O)[C@H]3[C@H](O)[C@@H]12 [Oxytetracycline],total nuclei,1 µM,3.55
same,total nuclei,5 µM,4.3
N#Cc1ccc(C(c2ccc(C#N)cc2)n2cncn2)cc1 [letrozole],total nuclei,1 µM,3.3
same,total nuclei,5 µM,4.5
Clc1cccc(Cl)c1NC1=NCCN1 [Clonidine hydrochloride],total nuclei,1 µM,2.48
same,total nuclei,5 µM,2.5
CC[C@@H]1C(=O)OC[C@@H]1Cc1cncn1C [Pilocarpine],total nuclei,1 µM,3.9
same,total nuclei,5 µM,4.8
COc1ccc2cc([C@H](C)C(=O)O)ccc2c1 [Naproxen],total nuclei,1 µM,2.79
same,total nuclei,5 µM,2.8
O=[N+]([O-])c1cccc2cn[nH]c12 [7-Nitroindazole],total nuclei,1 µM,2.85
same,total nuclei,5 µM,2.8
O=C(O)c1cc(=O)c2c(OCC(O)COc3cccc4oc(C(=O)O)cc(=O)c34)cccc2o1 [Cromolyn Sodium],total nuclei,1 µM,5.49
same,total nuclei,5 µM,4.2
CN1CCN(c2nc3cc(C(F)(F)F)ccc3n3cccc23)CC1,total nuclei,1 µM,4.5
same,total nuclei,5 µM,13.4
COc1ccc(CCN(C)CCCC(C#N)(c2ccc(OC)c(OC)c2)C(C)C)cc1OC (stereo not given) [Verapamil],total nuclei,1 µM,5.62
same,total nuclei,5 µM,5.2
Cn1c(=O)c2nc[nH]c2n(C)c1=O [Theophylline],total nuclei,1 µM,2.82
same,total nuclei,5 µM,2.8
CN(C)CC/C=C1/c2ccccc2COc2ccc(CC(=O)O)cc21 [Olopatadine],total nuclei,1 µM,2.77
same,total nuclei,5 µM,2.8
OCCOCCN1CCN(C2=Nc3ccccc3Sc3ccccc32)CC1 [Quetiapine hemifumarate],total nuclei,1 µM,2.88
same,total nuclei,5 µM,3.1
CN1CCC(=C2c3ccccc3CCc3sccc32)CC1 [Pizotyline],total nuclei,1 µM,4.62
same,total nuclei,5 µM,5.4
O=C(O)COCCN1CCN(C(c2ccccc2)c2ccc(Cl)cc2)CC1 (stereo not given) [Cetirizine],total nuclei,1 µM,2.7
same,total nuclei,5 µM,2.8
COC1=C(OC)C(=O)C(CCCCCCCCCCO)=C(C)C1=O [Idebenone],total nuclei,1 µM,3.65
same,total nuclei,5 µM,> 40
CCCOc1ccc(C(=O)OCCN(CC)CC)cc1N [Proxymetacaine],total nuclei,1 µM,2.73
same,total nuclei,5 µM,3.2
CCCCCCCCCCC[C@@H](C[C@@H]1OC(=O)[C@H]1CCCCCC)OC(=O)[C@H](CC(C)C)NC=O [Orlistat],total nuclei,1 µM,4.1
same,total nuclei,5 µM,13.7
Cc1ncc([N+](=O)[O-])n1CCO [Metronidazole],total nuclei,1 µM,3.46
same,total nuclei,5 µM,3.3
C[C@H]1C[C@H]2[C@@H]3CCC4=CC(=O)C=C[C@]4(C)[C@@]3(F)[C@@H](O)C[C@]2(C)[C@@]1(O)C(=O)CCl [Clobetasol],total nuclei,1 µM,2.8
same,total nuclei,5 µM,2.9
C[C@]12C[C@H](O)[C@H]3[C@@H](CCC4=CC(=O)CC[C@@]43C)[C@@H]1CC[C@@H]2C(=O)CO [Corticosterone],total nuclei,1 µM,2.81
same,total nuclei,5 µM,2.8
CSc1nc2cc(Cl)c(Oc3cccc(Cl)c3Cl)cc2[nH]1 [Triclabendazole],total nuclei,1 µM,3.9
same,total nuclei,5 µM,4.1
CN(C)[C@@H]1C(O)=C(C(=O)NCN2CCCC2)C(=O)[C@@]2(O)C(O)=C3C(=O)c4c(O)cccc4[C@@](C)(O)[C@H]3C[C@@H]12 [Rolitetracycline],total nuclei,1 µM,2.66
same,total nuclei,5 µM,2.7
CCOC(=O)c1ncn2c1CN(C)C(=O)c1cc(F)ccc1-2 [Flumazenil],total nuclei,1 µM,5.18
same,total nuclei,5 µM,6.6
CO[C@H]1/C=C/O[C@@]2(C)Oc3c(C)c(O)c4c(O)c(c(/C=N/N5CCN(C6CCCC6)CC5)c(O)c4c3C2=O)NC(=O)/C(C)=C\C=C\[C@H](C)[C@H](O)[C@@H](C)[C@@H](O)[C@@H](C)[C@H](OC(C)=O)[C@@H]1C [Rifapentine],total nuclei,1 µM,3.34 ± 0.72
same,total nuclei,5 µM,5.05 ± 3
COc1ccc2[nH]c([S+]([O-])Cc3ncc(C)c(OC)c3C)nc2c1 (stereo not given) [Omeprazole],total nuclei,1 µM,2.82
same,total nuclei,5 µM,2.9
COc1ccc(/C=C/C(=O)Nc2ccccc2C(=O)O)cc1OC [Tranilast],total nuclei,1 µM,3.2
same,total nuclei,5 µM,3.1
CN(C)[C@@H]1C(O)=C(C(N)=O)C(=O)[C@@]2(O)C(O)=C3C(=O)c4c(O)ccc(Cl)c4[C@@H](O)[C@H]3C[C@@H]12 [Demeclocycline],total nuclei,1 µM,2.87
same,total nuclei,5 µM,3.1
CNC[C@H](O)c1ccc(O)c(O)c1 [Epinephrine],total nuclei,1 µM,2.67
same,total nuclei,5 µM,11.5
CN1CCN(C2=Nc3cc(Cl)ccc3Nc3ccccc32)CC1 [Clozapine],total nuclei,1 µM,5
same,total nuclei,5 µM,> 40
O=C(NCCO[N+](=O)[O-])c1cccnc1 [Nicorandil],total nuclei,1 µM,2.91
same,total nuclei,5 µM,2.9
Clc1ccc2c(c1)CCc1cccnc1C2=C1CCNCC1 [Desloratadine],total nuclei,1 µM,3.5
same,total nuclei,5 µM,9.9
CCOC(=O)[C@H](CCc1ccccc1)N[C@@H](C)C(=O)N1CCC[C@H]1C(=O)O [Enalapril],total nuclei,1 µM,2.3
same,total nuclei,5 µM,2.2
NC1CCN(c2nc3c(cc2F)c(=O)c(C(=O)O)cn3-c2ccc(F)cc2F)C1 (stereo not given) [Tosufloxacin],total nuclei,1 µM,3.85
same,total nuclei,5 µM,4.1
CN1C2CCCC1CC(NC(=O)c1nn(C)c3ccccc13)C2 (stereo not given) [Granisetron],total nuclei,1 µM,2.9
same,total nuclei,5 µM,2.8
CC(C)(C)NC[C@H](O)COc1nsnc1N1CCOCC1 [Timolol],total nuclei,1 µM,2.73
same,total nuclei,5 µM,2.7
Cc1ccnc2c1NC(=O)c1cccnc1N2C1CC1 [Nevirapine],total nuclei,1 µM,2.8
same,total nuclei,5 µM,3.1
CC(=O)O[C@]1(C(C)=O)CC[C@H]2[C@@H]3C[C@H](C)C4=CC(=O)CC[C@]4(C)[C@H]3CC[C@@]21C [Medroxyprogesterone acetate],total nuclei,1 µM,2.79
same,total nuclei,5 µM,3.3
O=C1N(c2ccccc2)c2ccccc2C1(Cc1ccncc1)Cc1ccncc1 [Linopirdine],total nuclei,1 µM,2.66
same,total nuclei,5 µM,2.8
COc1ccc2c3c1O[C@H]1C[C@@H](O)C=C[C@@]31CCN(C)C2 [Galantamine],total nuclei,1 µM,4.45
same,total nuclei,5 µM,4.6
Cc1ccc(S(=O)(=O)NC(=O)NN2CCCCCC2)cc1 [Tolazamide],total nuclei,1 µM,2.76
same,total nuclei,5 µM,2.8
CCCCN1CCCCC1C(=O)Nc1c(C)cccc1C (stereo not given) [Bupivacaine],total nuclei,1 µM,2.78
same,total nuclei,5 µM,3
O=c1[nH]c(=O)n(C2CCCO2)cc1F (stereo not given) [Tegafur],total nuclei,1 µM,6.33
same,total nuclei,5 µM,18
OCCN1CCN(CCCN2c3ccccc3Sc3ccc(C(F)(F)F)cc32)CC1 [Fluphenazine],total nuclei,1 µM,3.07
same,total nuclei,5 µM,31.5
CCCNCC(O)COc1ccccc1C(=O)CCc1ccccc1 (stereo not given) [Propafenone],total nuclei,1 µM,2.73
same,total nuclei,5 µM,3.7
CC(C)Oc1ccc2c(=O)c(-c3ccccc3)coc2c1 [Ipriflavone],total nuclei,1 µM,2.98
same,total nuclei,5 µM,3
CC1=C(C(=O)O)N2C(=O)[C@@H](NC(=O)[C@H](N)c3ccccc3)[C@H]2SC1 [Cephalexin],total nuclei,1 µM,3.69
same,total nuclei,5 µM,4.3
CCCc1cc(=O)[nH]c(=S)[nH]1 [Propylthiouracil],total nuclei,1 µM,2.71
same,total nuclei,5 µM,2.7
O=c1cnn([C@@H]2O[C@H](CO)[C@@H](O)[C@H]2O)c(=O)[nH]1 [Azauridine],total nuclei,1 µM,2.99
same,total nuclei,5 µM,5.6
CCC(=O)O[C@@H]1CC(=O)O[C@H](C)C/C=C/C=C/[C@H](O)[C@H](C)C[C@H](CC=O)[C@H](O[C@@H]2O[C@H](C)[C@@H](O[C@H]3C[C@@](C)(O)[C@@H](OC(=O)CC)[C@H](C)O3)[C@H](N(C)C)[C@H]2O)[C@H]1OC [Midecamycin],total nuclei,1 µM,4.74
same,total nuclei,5 µM,4.2
CCc1ccc(CCOc2ccc(CC3SC(=O)NC3=O)cc2)nc1 (stereo not given) [Pioglitazone],total nuclei,1 µM,2.9
same,total nuclei,5 µM,3.4
NNC(=O)c1ccncc1 [Isoniazid],total nuclei,1 µM,3.55
same,total nuclei,5 µM,4
C#C[C@]1(OC(C)=O)CC[C@H]2[C@@H]3CCC4=CC(=O)CC[C@@H]4[C@H]3CC[C@@]21C [Norethisterone acetate],total nuclei,1 µM,2.77
same,total nuclei,5 µM,2.9
CC(c1cc2ccccc2s1)N(O)C(N)=O (stereo not given) [Zileuton],total nuclei,1 µM,4.39
same,total nuclei,5 µM,3.9
CCCC(=O)O[C@]1(C(=O)COC(=O)CC)CC[C@H]2[C@@H]3CCC4=CC(=O)CC[C@]4(C)[C@H]3[C@@H](O)C[C@@]21C [Hydrocortisone buteprate],total nuclei,1 µM,2.77
same,total nuclei,5 µM,2.9
CCN(CC)CCNC(=O)c1cc(Cl)c(N)cc1OC [Metoclopramide],total nuclei,1 µM,3.91
same,total nuclei,5 µM,2.9
CC(=O)OCC(=O)[C@@]1(O)CC[C@H]2[C@@H]3CCC4=CC(=O)C=C[C@]4(C)[C@H]3[C@@H](O)C[C@@]21C [Prednisolone acetate],total nuclei,1 µM,3.78
same,total nuclei,5 µM,4.3

# Exported with tabs: part of the list above
smiles	measurement	setting	value
C=C(CC)C(=O)c1ccc(OCC(=O)O)c(Cl)c1Cl [Ethacrynic Acid]	total nuclei	1 µM	20
same	total nuclei	5 µM	> 40
CCN(CC)CC1CCCCN1CC(=O)N1c2ccccc2C(=O)Nc2cccnc21 (stereo not given) [Otenzepad]	total nuclei	1 µM	2.66
CC[C@@H]1C(=O)OC[C@@H]1Cc1cncn1C [Pilocarpine]	total nuclei	1 µM	3.9
CC(C)(C)NC[C@H](O)COc1nsnc1N1CCOCC1 [Timolol]	total nuclei	5 µM	2.7
O=C1N(c2ccccc2)c2ccccc2C1(Cc1ccncc1)Cc1ccncc1 [Linopirdine]	total nuclei	1 µM	2.66
CCC(=O)O[C@@H]1CC(=O)O[C@H](C)C/C=C/C=C/[C@H](O)[C@H](C)C[C@H](CC=O)[C@H](O[C@@H]2O[C@H](C)[C@@H](O[C@H]3C[C@@](C)(O)[C@@H](OC(=O)CC)[C@H](C)O3)[C@H](N(C)C)[C@H]2O)[C@H]1OC [Midecamycin]	total nuclei	5 µM	4.2
